# Measurements taken from PMC7819943, “Rice protein-binding microarrays: a tool to detect cis-acting elements near promoter regions in rice”.
# This is one part of the list.
# Target: T1, OsSMF1 (Oryza sativa, UniProt Q6ZLB0 1-436)
# T1 sequence: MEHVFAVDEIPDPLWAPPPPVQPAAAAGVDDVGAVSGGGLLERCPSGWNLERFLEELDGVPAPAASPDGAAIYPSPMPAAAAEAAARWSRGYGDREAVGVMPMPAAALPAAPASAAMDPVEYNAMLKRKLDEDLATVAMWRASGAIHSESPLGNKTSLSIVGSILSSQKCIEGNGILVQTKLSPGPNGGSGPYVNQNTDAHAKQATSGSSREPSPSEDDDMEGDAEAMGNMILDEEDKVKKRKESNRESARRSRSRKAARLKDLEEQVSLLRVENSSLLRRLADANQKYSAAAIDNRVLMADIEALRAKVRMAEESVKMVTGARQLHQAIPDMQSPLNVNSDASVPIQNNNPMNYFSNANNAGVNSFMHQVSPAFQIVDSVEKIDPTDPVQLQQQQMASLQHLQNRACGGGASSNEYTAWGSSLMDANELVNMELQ
# Assay: protein-binding microarray (RPBM); PBS, 2% BSA, 51.3 ng/ul salmon testes DNA, 50 uM zinc acetate, 200 nM TF, 25 C, 1 h; high values mean tight binding
# Conditions: protein: recombinant; tags: N-terminal polyhistidine and DsRed monomer fusion (pET32a); chain copies: 2; label: CyDye5-dUTP incorporated in the synthesized complementary strand; 3' TTTTT single-stranded linker to array surface; dsDNA, one strand shown
# Summary of the method: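 Binding signal here means per-feature fluorescence intensity in arbitrary units. The values were read on an Axon 4000B scanner after a custom Agilent array, double-stranded by primer extension with Cy5-dUTP, was incubated with 200 nM protein at 25 °C for 1 h in PBS with 2% BSA, salmon testes DNA and 50 µM zinc acetate, then washed. The proteins were transcription factors with an N-terminal polyhistidine tag and DsRed, expressed in E. coli BL21-CodonPlus and purified on Ni–NTA.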
row,Sequence,binding signal
1,CAATAGTGTAGCTGATGGCTACTACTGCCCCGTTGGCATCCGGAGTCACCTAGTGCAG,4760 fluorescence intensity (a.u.)
2,CTGCGCCCGCATGAGTCATGACGCCATGCGCCGCGTCCCGCGGAGTCACCTAGTGCAG,7370 fluorescence intensity (a.u.)
3,TGACCACACATTGCATCCGTCACCACCTTCTTCTAATTAACGGAGTCACCTAGTGCAG,3490 fluorescence intensity (a.u.)
4,TGCCTTCTGATTCTGGATCCCTGATGTTATATGTGTGCACCGGAGTCACCTAGTGCAG,36700 fluorescence intensity (a.u.)
5,GTGGAGTGGCGGTGGTAGCTTGTGACAGTGGCTATAAGAGCGGAGTCACCTAGTGCAG,3370 fluorescence intensity (a.u.)
6,TGGCGACCACGCCAGCACCATCGCATCACCCGTCTCCCTGCGGAGTCACCTAGTGCAG,6360 fluorescence intensity (a.u.)
7,CTCCACGCCACGTTACCACCAGCAGTCCAGCGTGCCTCGCCGGAGTCACCTAGTGCAG,7620 fluorescence intensity (a.u.)
8,GTCACTTGCTTCCAAGAACCCCGTGACAAGGCGGGAAGGACGGAGTCACCTAGTGCAG,3710 fluorescence intensity (a.u.)
9,GAAAACTAGCTTTGTCATCATTTCCGCTTCGTTCCGGCTGCGGAGTCACCTAGTGCAG,6720 fluorescence intensity (a.u.)
10,CGCCGCCACCATCAACCGCGTCCCTCGTGACCTCGTCTCGCGGAGTCACCTAGTGCAG,3680 fluorescence intensity (a.u.)
11,GGCTGGTGGGGCATGCGAGATACCCGGGCCCACGTGTCGGCGGAGTCACCTAGTGCAG,10000 fluorescence intensity (a.u.)
12,TACTCTGATTTTGTCCATTACCAGCTGCAAATGGACCAGCCGGAGTCACCTAGTGCAG,34600 fluorescence intensity (a.u.)
13,GCGTGTAGCAATACTAAAGTTAGTGGTTGATGGTGGTCTGCGGAGTCACCTAGTGCAG,3160 fluorescence intensity (a.u.)
14,TAAGTTCATCCTACACGTCAGGCACGATCCGAAGCGGCTACGGAGTCACCTAGTGCAG,5780 fluorescence intensity (a.u.)
15,CGAGTGACTGACGTGTGGGCTCGGTGGTAGATAAACTCGGCGGAGTCACCTAGTGCAG,6210 fluorescence intensity (a.u.)
16,TGATGAGTCAGAGCTATTTCCTCCATCGTATAAGATTTTACGGAGTCACCTAGTGCAG,20400 fluorescence intensity (a.u.)
17,GGACCAATCACGTGGCGCCACGTAAGCGCAAGCCCGCCCCCGGAGTCACCTAGTGCAG,33200 fluorescence intensity (a.u.)
18,ATCTCACCTCCCATATCTTATTTGCCAAACACACCCTTCCCGGAGTCACCTAGTGCAG,3210 fluorescence intensity (a.u.)
19,TTATGAGTTTAGAGGGATGATTAGGATACATGGGAATTTTCGGAGTCACCTAGTGCAG,22200 fluorescence intensity (a.u.)
20,TGACCAAAATTTGAAACTTTCAATACAATTATGAAACTTTCGGAGTCACCTAGTGCAG,6370 fluorescence intensity (a.u.)
21,GGCGATCCAGTCTATCGGCGTGTCCAGGTAACTGTTCGTCCGGAGTCACCTAGTGCAG,3150 fluorescence intensity (a.u.)

row,Sequence,binding signal
1,TCTGGGTTGAGATAAATTCCAGGTACGCGTGGAACTGTGTCGGAGTCACCTAGTGCAG,25900 fluorescence intensity (a.u.)
2,AGCGCAATCACACGGGCGTGAGACCGCCACGTGTCCGGTGCGGAGTCACCTAGTGCAG,14800 fluorescence intensity (a.u.)
3,TTTTGGGCCTCCTGTGACCTACATGGGCCGCACTTCTTTCCGGAGTCACCTAGTGCAG,25900 fluorescence intensity (a.u.)
4,CCTCCAATCTCGTCACCAACCAAACCACCTCGCCGCAGATCGGAGTCACCTAGTGCAG,4350 fluorescence intensity (a.u.)
5,GACGGAAACCGAAAGCAAATCCACGCCACCGGCGAGCCCGCGGAGTCACCTAGTGCAG,3370 fluorescence intensity (a.u.)
6,GTTGTATTTACCTGCCTACTTGGTCATCAGAAGTACACCTCGGAGTCACCTAGTGCAG,3170 fluorescence intensity (a.u.)
7,GTGGGTCCCACCTATGCCACGTGGCCGCATCCTGCCTCTCCGGAGTCACCTAGTGCAG,28900 fluorescence intensity (a.u.)
8,TCTGCCACCTTTGAAAGGTTCCGTCATCATGCACCAGTTTCGGAGTCACCTAGTGCAG,3900 fluorescence intensity (a.u.)
9,TATCATTCAAAGGCTATAAATAATTGAGGTGATGTGGCTTCGGAGTCACCTAGTGCAG,5000 fluorescence intensity (a.u.)
10,TAAATATCCATTCGATTTAGCGTGTCAACTTCATCCATCTCGGAGTCACCTAGTGCAG,3980 fluorescence intensity (a.u.)
11,AGCTCATGGCACCTGATCGGCAATCAATCACCAAACGTGGCGGAGTCACCTAGTGCAG,3160 fluorescence intensity (a.u.)
12,ATGCAGATTAGCGTGCGATTAGCGAGGCCACGTGGCGCTGCGGAGTCACCTAGTGCAG,30600 fluorescence intensity (a.u.)
13,CCTGCCCCTCCACGCCCTCACCACAAACCCACGTGGGCCCCGGAGTCACCTAGTGCAG,4240 fluorescence intensity (a.u.)
14,ACATGCCAGCTCCAACACACGAGCTACAACCCGGTAATTACGGAGTCACCTAGTGCAG,3700 fluorescence intensity (a.u.)
15,AAGCTAGTCACACATCACCATCACACACACCAAGCCACACCGGAGTCACCTAGTGCAG,4460 fluorescence intensity (a.u.)
16,TTGTTGGACTCGCCGGTGAGAAGCGATGTGTCATGGAATGCGGAGTCACCTAGTGCAG,5590 fluorescence intensity (a.u.)
17,ACAACGTTATTGACATCACTCTACAAGCCACGTCATTTTACGGAGTCACCTAGTGCAG,16800 fluorescence intensity (a.u.)
18,AGGACAGGAAAGTGGGTGAAAGATCAGGAACAGATTTTGGCGGAGTCACCTAGTGCAG,7340 fluorescence intensity (a.u.)
19,AAGAAAATGCACATGGACATGTGTCAGCGCATAAACACGCCGGAGTCACCTAGTGCAG,4040 fluorescence intensity (a.u.)
20,CTACGTTACACTGTGCGTGGCTTGTCTCTGCTCTATATGTCGGAGTCACCTAGTGCAG,4020 fluorescence intensity (a.u.)
21,ATGTCTTTCCATAGGAATTCAATCCTTGAAAATTCCTCCACGGAGTCACCTAGTGCAG,3240 fluorescence intensity (a.u.)

# A few values from the results shown.
# GTTGTATTTACCTGCCTACTTGGTCATCAGAAGTACACCTCGGAGTCACCTAGTGCAG – binding signal: 3170 fluorescence intensity (a.u.)
# CCTGCCCCTCCACGCCCTCACCACAAACCCACGTGGGCCCCGGAGTCACCTAGTGCAG – binding signal: 4240 fluorescence intensity (a.u.)
